According to publication PMC7364817:

T1: FLAG-tagged SMCR8 (Smith-Magenis Syndrome Chromosome Region, Candidate 8) (UniProt Q8TEV9)
T1 sequence: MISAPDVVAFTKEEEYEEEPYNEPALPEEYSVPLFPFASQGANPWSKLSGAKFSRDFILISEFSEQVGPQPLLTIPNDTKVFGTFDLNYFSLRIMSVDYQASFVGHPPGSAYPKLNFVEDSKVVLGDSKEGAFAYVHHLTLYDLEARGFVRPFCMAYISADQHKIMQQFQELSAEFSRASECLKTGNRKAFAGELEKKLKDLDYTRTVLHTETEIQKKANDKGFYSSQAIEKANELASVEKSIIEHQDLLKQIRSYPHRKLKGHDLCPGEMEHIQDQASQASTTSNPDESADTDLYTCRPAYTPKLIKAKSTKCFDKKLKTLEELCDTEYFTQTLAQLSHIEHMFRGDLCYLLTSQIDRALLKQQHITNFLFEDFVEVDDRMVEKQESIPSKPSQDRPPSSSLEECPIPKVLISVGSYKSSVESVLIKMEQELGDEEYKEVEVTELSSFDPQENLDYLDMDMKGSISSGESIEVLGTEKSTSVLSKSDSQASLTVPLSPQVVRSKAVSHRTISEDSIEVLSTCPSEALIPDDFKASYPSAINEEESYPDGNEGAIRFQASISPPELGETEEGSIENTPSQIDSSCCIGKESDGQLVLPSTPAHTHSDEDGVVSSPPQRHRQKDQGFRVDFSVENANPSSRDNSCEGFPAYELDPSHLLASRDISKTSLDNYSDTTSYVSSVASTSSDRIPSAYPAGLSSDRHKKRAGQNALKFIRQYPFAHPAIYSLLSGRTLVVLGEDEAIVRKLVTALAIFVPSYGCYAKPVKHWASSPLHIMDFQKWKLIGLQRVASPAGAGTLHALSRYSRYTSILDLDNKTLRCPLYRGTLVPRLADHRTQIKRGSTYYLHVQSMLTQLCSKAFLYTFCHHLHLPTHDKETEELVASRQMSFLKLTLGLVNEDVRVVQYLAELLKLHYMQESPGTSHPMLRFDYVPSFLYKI

B1: FIG4 (protein, UniProt Q92562 1-907)
chain: MPTAAAPIISSVQKLVLYETRARYFLVGSNNAETKYRVLKIDRTEPKDLVIIDDRHVYTQQEVRELLGRLDLGNRTKMGQKGSSGLFRAVSAFGVVGFVRFLEGYYIVLITKRRKMADIGGHAIYKVEDTNMIYIPNDSVRVTHPDEARYLRIFQNVDLSSNFYFSYSYDLSHSLQYNLTVLRMPLEMLKSEMTQNRQESFDIFEDEGLITQGGSGVFGICSEPYMKYVWNGELLDIIKSTVHRDWLLYIIHGFCGQSKLLIYGRPVYVTLIARRSSKFAGTRFLKRGANCEGDVANEVETEQILCDASVMSFTAGSYSSYVQVRGSVPLYWSQDISTMMPKPPITLDQADPFAHVAALHFDQMFQRFGSPIIILNLVKEREKRKHERILSEELVAAVTYLNQFLPPEHTIVYIPWDMAKYTKSKLCNVLDRLNVIAESVVKKTGFFVNRPDSYCSILRPDEKWNELGGCVIPTGRLQTGILRTNCVDCLDRTNTAQFMVGKCALAYQLYSLGLIDKPNLQFDTDAVRLFEELYEDHGDTLSLQYGGSQLVHRVKTYRKIAPWTQHSKDIMQTLSRYYSNAFSDADRQDSINLFLGVFHPTEGKPHLWELPTDFYLHHKNTMRLLPTRRSYTYWWTPEVIKHLPLPYDEVICAVNLKKLIVKKFHKYEEEIDIHNEFFRPYELSSFDDTFCLAMTSSARDFMPKTVGIDPSPFTVRKPDETGKSVLGNKSNREEAVLQRKTAASAPPPPSEEAVSSSSEDDSGTDREEEGSVSQRSTPVKMTDAGDSAKVTENVVQPMKELYGINLSDGLSEEDFSIYSRFVQLGQSQHKQDKNSQQPCSRCSDGVIKLTPISAFSQDNIYEVQPPRVDRKSTEIFQAHIQASQGIMQPLGKEDSSMYREYIRNRYL
B2: nucleoporin 160 (protein, UniProt Q12769 1-1436)
chain: MLHLSAAPPAPPPEVTATARPCLCSVGRRGDGGKMAAAGALERSFVELSGAERERPRHFREFTVCSIGTANAVAGAVKYSESAGGFYYVESGKLFSVTRNRFIHWKTSGDTLELMEESLDINLLNNAIRLKFQNCSVLPGGVYVSETQNRVIILMLTNQTVHRLLLPHPSRMYRSELVVDSQMQSIFTDIGKVDFTDPCNYQLIPAVPGISPNSTASTAWLSSDGEALFALPCASGGIFVLKLPPYDIPGMVSVVELKQSSVMQRLLTGWMPTAIRGDQSPSDRPLSLAVHCVEHDAFIFALCQDHKLRMWSYKEQMCLMVADMLEYVPVKKDLRLTAGTGHKLRLAYSPTMGLYLGIYMHAPKRGQFCIFQLVSTESNRYSLDHISSLFTSQETLIDFALTSTDIWALWHDAENQTVVKYINFEHNVAGQWNPVFMQPLPEEEIVIRDDQDPREMYLQSLFTPGQFTNEALCKALQIFCRGTERNLDLSWSELKKEVTLAVENELQGSVTEYEFSQEEFRNLQQEFWCKFYACCLQYQEALSHPLALHLNPHTNMVCLLKKGYLSFLIPSSLVDHLYLLPYENLLTEDETTISDDVDIARDVICLIKCLRLIEESVTVDMSVIMEMSCYNLQSPEKAAEQILEDMITIDVENVMEDICSKLQEIRNPIHAIGLLIREMDYETEVEMEKGFNPAQPLNIRMNLTQLYGSNTAGYIVCRGVHKIASTRFLICRDLLILQQLLMRLGDAVIWGTGQLFQAQQDLLHRTAPLLLSYYLIKWGSECLATDVPLDTLESNLQHLSVLELTDSGALMANRFVSSPQTIVELFFQEVARKHIISHLFSQPKAPLSQTGLNWPEMITAITSYLLQLLWPSNPGCLFLECLMGNCQYVQLQDYIQLLHPWCQVNVGSCRFMLGRCYLVTGEGQKALECFCQAASEVGKEEFLDRLIRSEDGEIVSTPRLQYYDKVLRLLDVIGLPELVIQLATSAITEAGDDWKSQATLRTCIFKHHLDLGHNSQAYEALTQIPDSSRQLDCLRQLVVVLCERSQLQDLVEFPYVNLHNEVVGIIESRARAVDLMTHNYYELLYAFHIYRHNYRKAGTVMFEYGMRLGREVRTLRGLEKQGNCYLAALNCLRLIRPEYAWIVQPVSGAVYDRPGASPKRNHDGECTAAPTNRQIEILELEDLEKECSLARIRLTLAQHDPSAVAVAGSSSAEEMVTLLVQAGLFDTAISLCQTFKLPLTPVFEGLAFKCIKLQFGGEAAQAEAWAWLAANQLSSVITTKESSATDEAWRLLSTYLERYKVQNNLYHHCVINKLLSHGVPLPNWLINSYKKVDAAELLRLYLNYDLLEEAVDLVSEYVDAVLGKGHQYFGIEFPLSATAPMVWLPYSSIDQLLQALGENSANSHNIALSQKILDKLEDYQQKVDKATRDLLYRRTL
B3: THO complex 3 (protein, UniProt Q96J01 1-351)
chain: MAVPAAAMGPSALGQSGPGSMAPWCSVSSGPSRYVLGMQELFRGHSKTREFLAHSAKVHSVAWSCDGRRLASGSFDKTASVFLLEKDRLVKENNYRGHGDSVDQLCWHPSNPDLFVTASGDKTIRIWDVRTTKCIATVNTKGENINICWSPDGQTIAVGNKDDVVTFIDAKTHRSKAEEQFKFEVNEISWNNDNNMFFLTNGNGCINILSYPELKPVQSINAHPSNCICIKFDPMGKYFATGSADALVSLWDVDELVCVRCFSRLDWPVRTLSFSHDGKMLASASEDHFIDIAEVETGDKLWEVQCESPTFTVAWHPKRPLLAFACDDKDGKYDSSREAGTVKLFGLPNDS
B4: exportin for tRNA (protein, UniProt O43592 1-962)
chain: MDEQALLGLNPNADSDFRQRALAYFEQLKISPDAWQVCAEALAQRTYSDDHVKFFCFQVLEHQVKYKYSELTTVQQQLIRETLISWLQAQMLNPQPEKTFIRNKAAQVFALLFVTEYLTKWPKFFFDILSVVDLNPRGVDLYLRILMAIDSELVDRDVVHTSEEARRNTLIKDTMREQCIPNLVESWYQILQNYQFTNSEVTCQCLEVVGAYVSWIDLSLIANDRFINMLLGHMSIEVLREEACDCLFEVVNKGMDPVDKMKLVESLCQVLQSAGFFSIDQEEDVDFLARFSKLVNGMGQSLIVSWSKLIKNGDIKNAQEALQAIETKVALMLQLLIHEDDDISSNIIGFCYDYLHILKQLTVLSDQQKANVEAIMLAVMKKLTYDEEYNFENEGEDEAMFVEYRKQLKLLLDRLAQVSPELLLASVRRVFSSTLQNWQTTRFMEVEVAIRLLYMLAEALPVSHGAHFSGDVSKASALQDMMRTLVTSGVSSYQHTSVTLEFFETVVRYEKFFTVEPQHIPCVLMAFLDHRGLRHSSAKVRSRTAYLFSRFVKSLNKQMNPFIEDILNRIQDLLELSPPENGHQSLLSSDDQLFIYETAGVLIVNSEYPAERKQALMRNLLTPLMEKFKILLEKLMLAQDEERQASLADCLNHAVGFASRTSKAFSNKQTVKQCGCSEVYLDCLQTFLPALSCPLQKDILRSGVRTFLHRMIICLEEEVLPFIPSASEHMLKDCEAKDLQEFIPLINQITAKFKIQVSPFLQQMFMPLLHAIFEVLLRPAEENDQSAALEKQMLRRSYFAFLQTVTGSGMSEVIANQGAENVERVLVTVIQGAVEYPDPIAQKTCFIILSKLVELWGGKDGPVGFADFVYKHIVPACFLAPLKQTFDLADAQTVLALSECAVTLKTIHLKRGPECVQYLQQEYLPSLQVAPEIIQEFCQALQQPDAKVFKNYLKVFFQRAKP
B5: makorin ring finger protein 2, E3 ubiquitin ligase (protein, UniProt Q9H000 1-416)
chain: MSTKQITCRYFMHGVCREGSQCLFSHDLANSKPSTICKYYQKGYCAYGTRCRYDHTRPSAAAGGAVGTMAHSVPSPAFHSPHPPSEVTASIVKTNSHEPGKREKRTLVLRDRNLSGMAERKTQPSMVSNPGSCSDPQPSPEMKPHSYLDAIRSGLDDVEASSSYSNEQQLCPYAAAGECRFGDACVYLHGEVCEICRLQVLHPFDPEQRKAHEKICMLTFEHEMEKAFAFQASQDKVCSICMEVILEKASASERRFGILSNCNHTYCLSCIRQWRCAKQFENPIIKSCPECRVISEFVIPSVYWVEDQNKKNELIEAFKQGMGKKACKYFEQGKGTCPFGSKCLYRHAYPDGRLAEPEKPRKQLSSQGTVRFFNSVRLWDFIENRESRHVPNNEDVDMTELGDLFMHLSGVESSEP
B6: ubiquitin specific peptidase 15 (protein, UniProt Q9Y4E8 1-981)
chain: MAEGGAADLDTQRSDIATLLKTSLRKGDTWYLVDSRWFKQWKKYVGFDSWDKYQMGDQNVYPGPIDNSGLLKDGDAQSLKEHLIDELDYILLPTEGWNKLVSWYTLMEGQEPIARKVVEQGMFVKHCKVEVYLTELKLCENGNMNNVVTRRFSKADTIDTIEKEIRKIFSIPDEKETRLWNKYMSNTFEPLNKPDSTIQDAGLYQGQVLVIEQKNEDGTWPRGPSTPKSPGASNFSTLPKISPSSLSNNYNNMNNRNVKNSNYCLPSYTAYKNYDYSEPGRNNEQPGLCGLSNLGNTCFMNSAIQCLSNTPPLTEYFLNDKYQEELNFDNPLGMRGEIAKSYAELIKQMWSGKFSYVTPRAFKTQVGRFAPQFSGYQQQDCQELLAFLLDGLHEDLNRIRKKPYIQLKDADGRPDKVVAEEAWENHLKRNDSIIVDIFHGLFKSTLVCPECAKISVTFDPFCYLTLPLPMKKERTLEVYLVRMDPLTKPMQYKVVVPKIGNILDLCTALSALSGIPADKMIVTDIYNHRFHRIFAMDENLSSIMERDDIYVFEININRTEDTEHVIIPVCLREKFRHSSYTHHTGSSLFGQPFLMAVPRNNTEDKLYNLLLLRMCRYVKISTETEETEGSLHCCKDQNINGNGPNGIHEEGSPSEMETDEPDDESSQDQELPSENENSQSEDSVGGDNDSENGLCTEDTCKGQLTGHKKRLFTFQFNNLGNTDINYIKDDTRHIRFDDRQLRLDERSFLALDWDPDLKKRYFDENAAEDFEKHESVEYKPPKKPFVKLKDCIELFTTKEKLGAEDPWYCPNCKEHQQATKKLDLWSLPPVLVVHLKRFSYSRYMRDKLDTLVDFPINDLDMSEFLINPNAGPCRYNLIAVSNHYGGMGGGHYTAFAKNKDDGKWYYFDDSSVSTASEDQIVSKAAYVLFYQRQDTFSGTGFFPLDRETKGASAATGIPLESDEDSNDNDNDIENENCMHTN

biological target: T1, FLAG-tagged SMCR8 (Smith-Magenis Syndrome Chromosome Region, Candidate 8); assay: affinity purification with mass spectrometry; FL-SMCR8, C9orf72-FL or empty vector transfected in HEK 293T; α-FLAG agarose IP from whole cell lysates with or without RNase; LC-MS/MS; hits with three or more spectra and not detected in vector only control

binding | Binder
binds | B1
binds | B2
binds | B3
binds | B4
binds | B5
binds | B6

These are yes or no findings as the source states them, for the method shown. Binding seen in cells or lysates may run through a third protein. Here binding means that the protein was enriched with, or labelled near, the bait; the list need not be complete. Where a sequence is shown, tags or fusion partners need not be part of it.
